Data from PubChem BioAssay AID493014 (National Center for Advancing Translational Sciences (NCATS), 2011).
About 170 (0.05%) of roughly 340,000 compounds were called active. This list was built around the results that the source calls inconclusive (neither active nor inactive); the mix of calls is not that of the screen. The call rests on the fitted dose curve; in most records, active means well fitted inhibition curve with a large enough effect in the signal ratio, with a control signal flat (not every such curve was filed as active); inconclusive means small, poorly fitted or top-dose-only effect, or effect the other way, or a change in a side signal; inactive means flat fitted curve, though single readings scatter; the % refers to the signal ratio. Potencies beside an inconclusive call are fits to weak or partial responses and may not hold up.

assay: qHTS Assay to Find Inhibitors of Chronic Active B-Cell Receptor Signaling; settings: ABC-DLBCL IkBa-CBG/CBR reporter, luminescence ratio (green luciferase fused to IkBa over red control in TMD8 lymphoma cells), 4 h; activity change, negative = inhibition: at 46.1 µM (top of the series) unless noted;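 on activity change, negative = inhibition: plate controls were basal doxycycline-induced cells for no effect and cells given 10 µM MG132 for full effect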
How it was run: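 Compounds up to 46 uM were incubated four hours with TMD8 cells whose green CBG68 luciferase is fused to IkappaBalpha; red CBR luminescence normalised the signal, and concentration-effect curves were fitted to fusion, red and ratio data.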
Potency means the concentration at half of the fitted maximal effect.

Structure (SMILES) | activity change, negative = inhibition | Potency
S=c1nc(-c2ccc(Cl)cc2)[nH][nH]1 | inconclusive: 1.19% | 
CCOC(=O)c1ccc2ncc(C(=O)OCC)c(NCc3ccco3)c2c1 | inconclusive: -0.0556% | 
Cc1cc(C(C)(C)C)cc(C)c1C[n+]1ccc2ccccc2c1 |  | inconclusive: 35.5 µM [falling, partial curve, poor fit]
COCCN(C(=O)COC(=O)c1cccs1)c1c(N)n(Cc2ccccc2)c(=O)[nH]c1=O | inactive | 
O=C(CNc1ccccc1OC(F)F)N1CCc2ccccc21 |  | inconclusive: 10 µM [falling, partial curve, poor fit]
COc1ccc(C(=O)OCC(=O)Nc2nnc(-c3ccccc3)o2)cc1 |  | inconclusive: 35.5 µM [falling, single point]
CCn1c(SC(C)C)nnc1-c1c[nH]c2ccccc12 | inconclusive: 4.95% | 
Cn1nnc2c(N3CCN(c4ccccc4)CC3)ncnc21 |  | inconclusive: 22.4 µM [falling, single point]
Nc1ccc(-c2nc3ccc(N)cc3o2)cc1 |  | inconclusive: 29.1 µM [falling, single point]
COc1ccc(S(=O)(=O)N2CCC(C(N)=O)(N3CCCCC3)CC2)cc1 | inactive | 
O=C(/C=C/c1ccc([N+](=O)[O-])cc1)NCc1cccs1 |  | inconclusive: 18.4 µM [falling, partial curve, poor fit]
NC(=S)n1[nH]c(-c2ccc([N+](=O)[O-])cc2)c(N=Nc2cccc([N+](=O)[O-])c2)c1=O | inconclusive: -18% | 
COC(=O)c1ccc(CSc2ncnc3ccccc23)o1 | inconclusive: 13.8% | 
CCCN(CCC)S(=O)(=O)c1ccc2c(c1)N(CC(=O)NCc1ccc(F)cc1Cl)C(=O)CS2 |  | inconclusive: 8.91 µM [activator, partial curve, poor fit]
O=C(C1CCN(c2nc(-c3ccccc3)nc3c2CCC3)CC1)N1CCC(O)CC1 | inconclusive: -4.03% | 
CSc1ccc(C2=CC(=O)C[C@H](c3ccc(F)cc3)C2)cc1 | inconclusive: 11.8% | 
O=C(C1=C[C@H](c2ccc(C(F)(F)F)cc2)C[C@H](OCc2ccc(CO)cc2)O1)N1CCCCCCC1 | inactive | 
COc1ccc(-c2nc(N)sc2C2(O)C(=O)Nc3c(Br)cc(F)cc32)cc1OC (configuration not stated) |  | inconclusive: 35.5 µM [falling, single point]
Cn1cccc1/C=N/NC(=O)c1cccnc1 |  | inconclusive: 20.6 µM [falling, single point]
O=C(Nc1cccn2ncnc12)C(Cl)Cl | inconclusive: -11.2% | 
COC(=O)c1c(NC(=O)CN2C(=O)NC(CCc3ccccc3)C2=O)sc2c1CCCCC2 (configuration not stated) | inconclusive: 7.47% | 
COc1cc(C2c3c(oc4ccc(C)cc4c3=O)C(=O)N2c2cc(C)ccn2)cc(OC)c1OC (configuration not stated) | inactive | 
CC1CCN(CCC(=O)Nc2ccc(F)c(F)c2)CC1 | inactive | 
COc1cccc(C(=O)c2cc3cc(Cl)ccc3[nH]2)c1 | inconclusive: 1.56% | 
O=C(O)C(Cc1ccc(Cl)cc1)Sc1nc2ccccc2[nH]1 (configuration not stated) | inconclusive: 4.75% | 
Cc1ccc(-c2n[nH]c3c2C(c2cccc(O)c2)N(c2ccc(C(=O)O)cc2)C3=O)cc1 (configuration not stated) |  | inconclusive: 17.8 µM [falling, single point]

An excerpt of these results, as tab-separated lines:
Structure (SMILES)	activity change, negative = inhibition	Potency
CCOC(=O)c1ccc2ncc(C(=O)OCC)c(NCc3ccco3)c2c1	inconclusive: -0.0556%	
Cc1cc(C(C)(C)C)cc(C)c1C[n+]1ccc2ccccc2c1		inconclusive: 35.5 µM [falling, partial curve, poor fit]
COCCN(C(=O)COC(=O)c1cccs1)c1c(N)n(Cc2ccccc2)c(=O)[nH]c1=O	inactive	
O=C(CNc1ccccc1OC(F)F)N1CCc2ccccc21		inconclusive: 10 µM [falling, partial curve, poor fit]
COc1ccc(C(=O)OCC(=O)Nc2nnc(-c3ccccc3)o2)cc1		inconclusive: 35.5 µM [falling, single point]

The results go on:

Structure (SMILES) | activity change, negative = inhibition | Potency
COC(=O)c1cc(C(=O)OCC(=O)NC(=O)NCc2ccccc2)cc([N+](=O)[O-])c1 | inconclusive: -11.3% | 
Cc1ccccc1OCC(=O)NNC(=O)C1CCN(c2ncnc3sc(C)c(C)c23)CC1 | inconclusive: -14% | 
Cn1cc(CN2CCCC(C(=O)c3cccs3)C2)c(-c2cccc(Cl)c2)n1 (configuration not stated) | inconclusive: 5.51% | 
Cc1ccc(-c2nc(NCC3CCCO3)sc2C)cc1 (configuration not stated) | inactive | 
O=[N+]([O-])c1cccnc1N1CCN(Cc2ccc3c(c2)OCO3)CC1 | inconclusive: 2.61% | 
S=C(c1ccc(N2CCCC2)c(Br)c1)N1CCCCC1 | inactive | 
CC1=NN(c2ccc(C)c(C)c2)C(=O)C1C(c1cccc(O)c1)C1C(=O)N(c2ccc(C)c(C)c2)N=C1C (configuration not stated) |  | inconclusive: 0.447 µM [rising, full curve, poor fit]
CCCCN(C(=O)c1c(C)[nH]c(C(=O)OCC)c1C)c1ccccc1 | inconclusive: -0.198% | 
O=C(C1=C[C@@H](c2ccc3c(c2)OCO3)C[C@@H](OCc2ccc(CO)cc2)O1)N1CCOCC1 | inactive | 
COC(=O)CC1=NN(c2ccc(OC)cc2)C(=O)C1 | inconclusive: 0.15% | 
CCCN=C1CC(C)(C)CC(=O)/C1=C(/O)CCCN1C(=O)c2ccccc2C1=O | inconclusive: 14% | 
COc1ccc(NCc2cc(=O)oc3cc(NC(C)=O)ccc23)cc1 | inactive | 
O=C(Nc1cc(Cl)ccc1N1CCOCC1)c1ccc(N2CCCC2=O)cc1 |  | inconclusive: 11.6 µM [falling, partial curve, poor fit]
Cc1ccc2sc(NNC(=O)c3ccc4c(c3)OCCO4)nc2c1C | inconclusive: -17.2% | 
CN(C(=S)Nc1ccc(SC(F)F)cc1)C(c1ccccc1)c1ccccc1 | inactive | 
COc1ccccc1-c1ccc(/C=C2/C=C(CC(C)C)OC2=O)o1 | inactive | 
COc1ccc(NC(=O)CCCC(=O)OCC(F)(F)C(F)F)cc1 | inconclusive: 9.79% | 
Cc1ccc(-c2nc3ccccc3[nH]c2=O)cc1 | inconclusive: 5.5% | 
CCOc1ncccc1C(=O)Nc1ccc2nc(C)sc2c1 | inactive | 
CCOC(=O)c1ccc(N2C(=O)c3n[nH]c(-c4ccco4)c3C2c2ccc([N+](=O)[O-])cc2)cc1 (configuration not stated) | inconclusive: 4.59% | 
COc1cccc2c1c(NC(=O)Nc1ccc(F)cc1F)nn2C | inconclusive: -20.9% | 
CN(CC(=O)Nc1c(Cl)cccc1Cl)C(=O)CCC(=O)c1ccccc1 | inconclusive: 5.96% | 
Cc1nn(-c2ccccc2)c(Cl)c1/C=N/NC(=O)c1ccn[nH]1 |  | inconclusive: 11.2 µM [falling, partial curve, poor fit]
N=c1c2c3c(sc2ncn1Nc1ccccc1)CCC3 |  | inconclusive: 17.8 µM [falling, partial curve]
N#C/C(=C(/O)CN1CCN(c2ccccc2F)CC1)c1nc(-c2ccc(Cl)cc2)cs1 |  | inconclusive: 8.91 µM [rising, partial curve]
Cc1nnc(Nc2ccc(S(N)(=O)=O)cc2)c2ccccc12 | inactive | 

Structure (SMILES) | activity change, negative = inhibition | Potency
O=C(CSc1cccc[n+]1[O-])c1ccc(Cl)cc1 |  | inconclusive: 5.62 µM [cytotoxic, single point]
Oc1ccc2c(c1)C1CCCC1(N1CCOCC1)O2 (configuration not stated) | inconclusive: -0.996% | 
Cn1nnnc1Sc1ncnc2scc(-c3ccc(Cl)cc3)c12 |  | inconclusive: 11.6 µM [cytotoxic, partial curve]
COc1ccc(C(=O)N/N=C/c2ccc(OC)c(COc3c(F)c(F)cc(F)c3F)c2)cc1 | inactive | 
CCn1c2ccccc2c2cc(N)ccc21 |  | inconclusive: 25.1 µM [falling, single point]
CC(C)(C)c1ccc(C(=O)Nc2c3c(nn2C(C)(C)C)CS(=O)(=O)C3)cc1 | inconclusive: 3.39% | 
CCOC(=O)N1CCc2c(sc3nc(SC(C)C)n(N)c(=O)c23)C1 |  | inconclusive: 8.2 µM [rising, partial curve, poor fit]
COc1ccccc1NC(=O)N1CCN(c2ccccc2F)CC1 | inconclusive: 15.3% | 
COc1cc(C2NCC(c3ccc(Cl)cc3Cl)c3c2[nH]c2ccccc32)cc(OC)c1OC (configuration not stated) | inconclusive: 4.46% | 
CN(C(=O)CSc1nnc(-c2ccco2)n1Cc1ccccc1)C1CCS(=O)(=O)C1 (configuration not stated) | inactive | 
Cc1cc(NC(=O)c2ccc(Br)c([N+](=O)[O-])c2)no1 | inconclusive: 4.18% | 
CSc1ccccc1C(=O)Nc1nccs1 |  | inconclusive: 0.00411 µM [falling, full curve, poor fit]
COC(=O)c1cc(=O)n(Cc2ccco2)c(=Nc2ccc(F)c(Cl)c2)s1 | inconclusive: 19.7% | 
Cc1ccc2nc(SCc3nnc(-c4ccccc4Br)o3)[nH]c2c1 | inconclusive: 1.91% | 
CCn1c(/C(C#N)=C/c2ccccc2Cl)nc2ccccc21 | inconclusive: 3.01% | 
Cc1ccc(OCC(=O)Nc2ccc3c(c2)C(=O)NC3=O)cc1 |  | inconclusive: 7.94 µM [falling, partial curve]
S=C1NCCc2ccccc2C1c1ccccc1Cl (configuration not stated) |  | inconclusive: 1.84 µM [falling, partial curve, poor fit]
Nc1c(-c2ccccc2)cnn1-c1cccc(Cl)c1 |  | inconclusive: 22.4 µM [falling, partial curve]
Cc1ccc(S(=O)(=O)N/N=C/c2ccccc2O)cc1[N+](=O)[O-] | inconclusive: 9.2% | 
C/C(=N\NC(=O)c1ccc(Cn2cc([N+](=O)[O-])cn2)o1)c1cccc(NC(=O)C(C)C)c1 |  | inconclusive: 18.4 µM [falling, partial curve, poor fit]
CCOC(=O)c1cccc(NC(=O)CSc2nc3cccnc3n2C)c1 |  | inconclusive: 18.4 µM [falling, single point]
CCN1CCc2c(sc(NC(=O)c3ccc4ccccc4c3)c2C(N)=O)C1 | inconclusive: -0.642% | 
COCCCNC(=O)Cn1nc(-c2cccc(OC)c2)ccc1=O | inconclusive: -17.9% | 
CC(C)NC(=O)/C(C#N)=C/c1cccc(NC(=O)c2ccccc2Cl)c1 |  | inconclusive: 29.1 µM [falling, single point]
COc1ccc(S(=O)(=O)N2CCOCC2)cc1NC(=O)COc1ccc2ccc(=O)oc2c1 | inconclusive: -0.195% | 
